In the test the target is T1, Flag-FBXO45 (human F-box/SPRY domain-containing protein 1 tagged with 3xFlag) (human) (UniProt P0C2W1).
T1 sequence: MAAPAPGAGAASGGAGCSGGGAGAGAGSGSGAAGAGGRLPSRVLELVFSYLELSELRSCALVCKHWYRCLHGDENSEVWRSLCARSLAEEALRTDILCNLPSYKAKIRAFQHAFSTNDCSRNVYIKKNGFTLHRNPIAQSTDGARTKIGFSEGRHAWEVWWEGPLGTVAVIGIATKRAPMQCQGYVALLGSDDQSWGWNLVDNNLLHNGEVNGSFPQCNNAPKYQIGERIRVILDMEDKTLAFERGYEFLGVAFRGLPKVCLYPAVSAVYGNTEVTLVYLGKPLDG
Kind of test: affinity purification with mass spectrometry; HCCLM3 cells transfected with Flag-tagged FBXO45; lysates precipitated with anti-Flag M2 IgG or normal nontargeting IgG, then mass spectrometry.

These are yes or no findings as the source states them, for the method shown. In cells and extracts the contact can be indirect. Here binding means that the protein was enriched with, or labelled near, the bait; the list need not be complete. Sequences can lack the tags named with a protein.

For “Insulin-like growth factor 2 mRNA-binding protein 1 (IGF2BP1), endogenous (from UniProt Q9NZI8-1 1-577)”, the binding result is recorded as “binds”.

The values above are taken from article PMC8641947.
